Data as given in PubChem BioAssay AID1259254 (NCATS, 2017)
Screen: 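Finding genes that stop cells copying their DNA twice in one cycle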 (primary screen). Cell system: human HCT116 colorectal cancer cells. Reagents: single siRNA against human genes. Time to read-out: 3 days. Detection: 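Nuclei stained with Hoechst and imaged; cell-cycle phase assigned by DNA content; G2 share scaled per plate, non-targeting siRNA 0%, GMNN siRNA 100%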. Reading the numbers: G2 robust z-score and G2 cells, % of GMNN control: higher = more G2 cells, more excess DNA replication. Call rule: 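An siRNA counts as active if its G2 robust z-score lies at least 5 MADs above the screen median; here such calls match roughly 38% of GMNN control or more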.
Here is one part, drawn at random, of about 59,000 reagents. About 1,550 of all reagents (2.6%) count as active. 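G2 share is only a proxy for re-replication; each gene was hit by three separate siRNAs, and active genes were retested.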 The numbers tell different reagents against one gene apart. Not all columns of the deposit are shown. Reagent sequences are not shown. The record does not give: the amount of reagent.

gene symbol	reagent no.	G2 robust z-score	G2 cells, % of GMNN control	activity call
AZIN2	1	-0.356	0.466	inactive
AZIN2	2	-0.571	-1.05	inactive
AZIN2	3	0.0857	3.57	inactive
ZNF318	1	-0.882	-3.24	inactive
ZNF318	2	0.741	8.18	inactive
ZNF318	3	-0.0891	2.34	inactive
OTOL1	1	-1.26	-5.93	inactive
OTOL1	2	0.612	7.27	inactive
OTOL1	3	-0.748	-2.3	inactive
TSPAN4	1	1.2	11.4	inactive
TSPAN4	2	1.82	15.8	inactive
TSPAN4	3	0.328	5.28	inactive
ETV3L	1	0.27	4.87	inactive
ETV3L	2	-0.996	-4.04	inactive
ETV3L	3	-0.475	-0.377	inactive
RNLS	1	-0.724	-2.13	inactive
RNLS	2	0.464	6.23	inactive
RNLS	3	0.764	8.34	inactive
ZNF69	1	-0.446	-0.171	inactive
ZNF69	2	2.38	19.7	inactive
ZNF69	3	-0.919	-3.5	inactive
BAHCC1	1	-0.64	-1.53	inactive
BAHCC1	2	0.598	7.17	inactive
BAHCC1	3	-0.948	-3.7	inactive
ZBTB12	1	0.458	6.19	inactive
ZBTB12	2	0.193	4.33	inactive
ZBTB12	3	-0.453	-0.219	inactive
SPCS3	1	0.446	6.1	inactive
SPCS3	2	-0.53	-0.763	inactive
SPCS3	3	-0.329	0.652	inactive
SELENOW	1	0.834	8.84	inactive
SELENOW	2	-0.803	-2.68	inactive
SELENOW	3	1.47	13.3	inactive
PPP4R4	1	-0.0615	2.53	inactive
PPP4R4	2	-0.904	-3.39	inactive
PPP4R4	3	0.365	5.53	inactive
MTSS1	1	-0.675	-1.78	inactive
MTSS1	2	0.296	5.05	inactive
MTSS1	3	-1.27	-5.98	inactive
MYCBPAP	1	-1	-4.1	inactive
MYCBPAP	2	1.43	13	inactive
MYCBPAP	3	0.0513	3.33	inactive
IRF2BP1	1	-1.01	-4.11	inactive
IRF2BP1	2	-0.81	-2.73	inactive
IRF2BP1	3	2.19	18.4	inactive
ZSWIM2	1	-0.321	0.712	inactive
ZSWIM2	2	0.459	6.19	inactive
ZSWIM2	3	-0.782	-2.54	inactive
MATK	1	-1.07	-4.56	inactive
MATK	2	0.441	6.07	inactive
MATK	3	-0.578	-1.1	inactive
CXCL13	1	0.126	3.85	inactive
CXCL13	2	-0.272	1.06	inactive
CXCL13	3	-0.55	-0.904	inactive
NEK11	1	-0.306	0.816	inactive
NEK11	2	-0.229	1.36	inactive
NEK11	3	-0.175	1.74	inactive
CPSF4L	1	0.0352	3.21	inactive
CPSF4L	2	0.751	8.25	inactive
CPSF4L	3	0.0688	3.45	inactive
SLC39A8	1	1.42	13	inactive
SLC39A8	2	0.0166	3.08	inactive
SLC39A8	3	0.813	8.69	inactive
TK1	1	2.31	19.2	inactive
TK1	2	-1.23	-5.67	inactive
TK1	3	-1.13	-4.96	inactive
GDF7	1	5.69	43	active
GDF7	2	2.63	21.5	inactive
GDF7	3	-0.611	-1.33	inactive
PARD3B	1	-0.475	-0.373	inactive
PARD3B	2	1.94	16.6	inactive
PARD3B	3	-0.31	0.789	inactive
KIAA2012-AS1	1	0.311	5.16	inactive
KIAA2012-AS1	2	0.781	8.46	inactive
KIAA2012-AS1	3	0.802	8.61	inactive
CPXM2	1	1.23	11.6	inactive
CPXM2	2	-0.461	-0.274	inactive
CPXM2	3	1.05	10.4	inactive
KIAA0319	1	5.52	41.8	active
KIAA0319	2	1.27	11.9	inactive
KIAA0319	3	-0.559	-0.968	inactive
LIN9	1	1.21	11.5	inactive
LIN9	2	4.45	34.3	inactive
LIN9	3	2.36	19.6	inactive
ZNF207	1	-0.286	0.955	inactive
ZNF207	2	-0.00275	2.95	inactive
ZNF207	3	1.14	11	inactive

Only “G2 robust z-score”, for 11 of the entries above:
SLC39A8 #2 = 0.0166
SLC39A8 #3 = 0.813
TK1 #1 = 2.31
TK1 #2 = -1.23
TK1 #3 = -1.13
GDF7 #1 = 5.69
GDF7 #2 = 2.63
GDF7 #3 = -0.611
PARD3B #1 = -0.475
PARD3B #2 = 1.94
PARD3B #3 = -0.31
